Values of other authors as cited in US20180355410A1, “DIAGNOSIS AND TREATMENT OF INFECTIOUS DISEASE” (Cambridge Enterprise Limited, priority 2015, published 2018).
At least one structure is not confirmed: it was looked up by name or label, or the drawing left a doubt. Some results were stated once for a whole list of compounds, not compound by compound.

Assays:
Neisseria gonorrhoeae = conditions: EUCAST clinical breakpoint valid from 1st January 2015
Gonorrhoea infection = conditions: oral ESC, WHO criteria for first-line therapy of Gonorrhoea

| SMILES | MIC R-breakpoint (resistant) (Neisseria gonorrhoeae) | MIC S-breakpoint (susceptible) (Neisseria gonorrhoeae) | cure rate (Gonorrhoea infection) |
| --- | --- | --- | --- |
| C=CC1=C(C(=O)O)N2C(=O)[C@@H](NC(=O)/C(=N\OCC(=O)O)c3csc(N)n3)[C@H]2SC1 [Cefixime] | > 0.125 µg/mL | ≤ 0.125 µg/mL | > 95% |
| CO/N=C(\C(=O)N[C@@H]1C(=O)N2C(C(=O)O)=C(CSc3nc(=O)c(=O)[nH]n3C)CS[C@H]12)c1csc(N)n1 [Ceftriaxone] | > 0.125 µg/mL | ≤ 0.125 µg/mL | – |
